B1: USP5-H4 (designed binder)
chain: MQIFVNTRLMYSITLEVEPSDTIENVKAKIQDKEGIPPDQQRLIFAGKQLEDGRTLSDYNIQKESTLHLVLRISRGLP
B2: USP5-E4 (designed binder)
chain: MEIYVNTRLLETINLEVEPSDTIENVKAKIQDKEGIPPDQQRLIFAGKQLEDGRTLSDYNIQKKSTLYLVLRLLGQRH
B3: USP5-F11 (designed binder)
chain: MQIFVQTRVMNTITLEVEPSDTIENVKAKIQDKEGIPPDQQRLIFATKQLEDGRTLSDYNIHKDSTLHLLLRMRRLNK
B4: USP5-F9 (designed binder)
chain: MPIFVNTRWMKTIPLEVEPSDTIENVKAKIQDKEGIPPDQQRLIFDRKQLEDGRTLSDYNIQKESTLHLVLRDLGVFC
B5: USP5-F3 (designed binder)
chain: MQIFVQTRAMWTITLEVEPSDTIENVKAKIQDKEGIPPDQQRLIFAGKQLEDGRTLSDYNIPKESTLHLVLRLRGGGG
B6: USP5-H8 (designed binder)
chain: MQIFVNTRMMETIALEVEPSDTIENVKAKIQDKEGIPPDQQSLIFAGKRLEDGRTLSDYNIQKSSTLHLVLRLRGGGG
B7: USP5-H7 (designed binder)
chain: MQILVRTRIMETITLEVEPSDTIENVKAKIQDKEGIPPDQQRLIFAGNQLEDGRTLSDYNIQKESTLHLVLRLRGGGG
B8: USP5-G8 (designed binder)
chain: MQIIVRTRAMWTIALEVEPSDTIENVKAKIQDKEGIPPDQQRLIFAGKQLEDGRTLSDYNIRTESTLHLVLRLRGGGG
B9: USP5-H12 (designed binder)
chain: MRIVVNTRYMNTISLEVEPSDTIENVKAKIQDKEGIPPDQQTLIFAGKQLEDGRTLSDYNIHKESTLHLVLRLRGGGG
B10: USP5-G11 (designed binder)
chain: MQISVNTRMMESITLEVEPSDTIENVKAKIQDKEGIPPDQQRLIFAGKQLEDGRTLSDYNILPESTLHLVLRLRGGGG
B11: USP5-H11 (designed binder)
chain: MQIVVNTRSMNTIHLEVEPSDTIENVKAKIQDKEGIPPDQQRLIFAGKQLEDGRTLSDYNIQKRSTLYLVLRLRGGGG
B12: USP5-F8 (designed binder)
chain: MRIFVKTRMMESIFLEVEPSDTIENVKAKIQDKEGIPPDQQRLIFAGQQLEDGRTLSDYNIQKESTLHLVVRFRSARR

Chains of the proteins cited; added tags and fusions are not shown. Lines headed by an entry give the natural chain unless they say otherwise; changes in a name come on top.
UniProt P45974: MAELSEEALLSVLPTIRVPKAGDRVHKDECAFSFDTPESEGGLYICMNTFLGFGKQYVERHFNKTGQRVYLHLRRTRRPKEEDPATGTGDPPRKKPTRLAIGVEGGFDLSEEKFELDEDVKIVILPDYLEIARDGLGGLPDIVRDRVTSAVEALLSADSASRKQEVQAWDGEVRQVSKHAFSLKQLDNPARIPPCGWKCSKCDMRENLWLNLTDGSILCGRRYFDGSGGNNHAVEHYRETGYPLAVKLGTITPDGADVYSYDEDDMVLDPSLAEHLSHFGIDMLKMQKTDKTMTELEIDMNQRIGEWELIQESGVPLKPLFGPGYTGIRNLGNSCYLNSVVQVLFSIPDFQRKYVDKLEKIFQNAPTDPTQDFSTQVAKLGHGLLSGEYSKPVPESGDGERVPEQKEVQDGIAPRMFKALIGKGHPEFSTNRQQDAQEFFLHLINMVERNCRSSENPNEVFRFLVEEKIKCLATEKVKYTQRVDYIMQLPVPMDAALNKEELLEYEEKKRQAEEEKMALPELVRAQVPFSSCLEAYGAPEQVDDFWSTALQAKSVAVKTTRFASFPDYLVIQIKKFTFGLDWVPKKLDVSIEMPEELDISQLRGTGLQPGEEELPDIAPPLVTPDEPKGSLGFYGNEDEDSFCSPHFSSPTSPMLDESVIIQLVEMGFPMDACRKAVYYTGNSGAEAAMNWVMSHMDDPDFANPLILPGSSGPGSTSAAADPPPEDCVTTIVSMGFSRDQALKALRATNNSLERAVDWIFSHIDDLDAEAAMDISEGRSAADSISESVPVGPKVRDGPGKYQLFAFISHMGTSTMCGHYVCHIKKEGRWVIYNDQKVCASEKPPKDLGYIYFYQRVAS

Results are given in words; binding and its absence hold for the method and conditions named. Binding can be weak; no strength is given.

For this test, the target named is USP5 (residues 1-835) (UniProt P45974). The experiment in a line: phage ELISA after 5 rounds of selection. For orientation: In an ELISA, binding on a coated surface is turned into a signal by an enzyme label.
In the case of B1, the binding entry was “binds”.
Then B2, with “binds”.
Then B3, with “binds”; and B4, with “binds”.
Then B5, with “binds”; and B6, with “binds”.
B7: the binding entry is “binds”.
With B8, the binding result is on record as “binds”.
Then B9, with “binds”.
B10: the binding entry is listed as “binds”.
Then B11, with “binds”; and B12, with “binds”.
